Source: paper PMC9539768
No constants are given. Whether binding was seen depends on the method and setting. In cells and extracts the contact can be indirect. Some binding calls cover weakened binding; strength is not graded here.

By UniProt entry, the sequences of proteins in these tests, tags left out.
UniProt P03372: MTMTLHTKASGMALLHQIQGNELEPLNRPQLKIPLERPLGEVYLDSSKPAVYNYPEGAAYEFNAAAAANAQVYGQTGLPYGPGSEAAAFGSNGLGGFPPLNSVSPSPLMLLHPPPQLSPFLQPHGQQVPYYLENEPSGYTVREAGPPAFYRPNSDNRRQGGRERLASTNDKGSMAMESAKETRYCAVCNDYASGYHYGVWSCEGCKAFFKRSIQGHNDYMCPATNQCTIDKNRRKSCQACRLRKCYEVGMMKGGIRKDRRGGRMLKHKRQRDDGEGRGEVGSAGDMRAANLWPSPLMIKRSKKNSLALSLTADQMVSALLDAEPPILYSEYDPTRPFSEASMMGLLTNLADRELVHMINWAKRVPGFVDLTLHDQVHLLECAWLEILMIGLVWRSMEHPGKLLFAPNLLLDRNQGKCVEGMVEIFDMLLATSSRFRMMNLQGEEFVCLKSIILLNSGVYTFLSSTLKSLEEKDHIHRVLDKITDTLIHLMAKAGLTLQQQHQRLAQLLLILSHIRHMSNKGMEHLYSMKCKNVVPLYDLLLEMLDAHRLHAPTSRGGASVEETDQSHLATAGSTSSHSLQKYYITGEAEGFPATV
UniProt Q13620: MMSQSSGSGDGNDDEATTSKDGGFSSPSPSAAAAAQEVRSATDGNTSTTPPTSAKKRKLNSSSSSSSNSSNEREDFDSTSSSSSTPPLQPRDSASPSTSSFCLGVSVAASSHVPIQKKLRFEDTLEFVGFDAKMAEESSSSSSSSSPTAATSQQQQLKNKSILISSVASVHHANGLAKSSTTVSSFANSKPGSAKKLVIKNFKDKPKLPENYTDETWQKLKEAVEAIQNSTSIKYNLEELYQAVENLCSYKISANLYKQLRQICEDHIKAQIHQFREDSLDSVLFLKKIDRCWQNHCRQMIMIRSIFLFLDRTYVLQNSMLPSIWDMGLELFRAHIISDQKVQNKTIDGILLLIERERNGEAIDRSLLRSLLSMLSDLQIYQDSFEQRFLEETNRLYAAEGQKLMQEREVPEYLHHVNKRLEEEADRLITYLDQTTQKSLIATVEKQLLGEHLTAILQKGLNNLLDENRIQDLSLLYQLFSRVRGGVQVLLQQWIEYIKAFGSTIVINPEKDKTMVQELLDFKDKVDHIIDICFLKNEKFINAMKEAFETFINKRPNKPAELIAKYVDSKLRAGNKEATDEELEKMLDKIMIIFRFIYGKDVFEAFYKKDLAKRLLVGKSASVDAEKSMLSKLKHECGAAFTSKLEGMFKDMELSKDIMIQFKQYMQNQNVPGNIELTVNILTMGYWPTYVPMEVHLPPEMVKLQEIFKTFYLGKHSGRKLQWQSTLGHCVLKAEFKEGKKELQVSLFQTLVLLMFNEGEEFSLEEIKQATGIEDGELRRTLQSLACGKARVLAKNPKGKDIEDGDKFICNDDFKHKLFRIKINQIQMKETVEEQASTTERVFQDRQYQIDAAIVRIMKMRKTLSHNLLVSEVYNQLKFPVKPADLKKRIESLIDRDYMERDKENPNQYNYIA

Biological target: Estrogen receptor α (human (endogenous in MCF7)) (UniProt P03372)
Experiment: co-IP; endogenous proteins from MCF7 cells with or without Flag-HA-MOF overexpression; BC-200 lysis buffer (20 mM HEPES, 200 mM KCl, 10 mM β-mercaptoethanol, 1 mM EDTA, 10% glycerol, 0.1% NP-40); 1 μg of antibody, Protein A/G magnetic beads; detected by Western blotting

binding: binds
Substance: Cullin 4b (from UniProt Q13620 1-913)
